Source: article PMC6366968
Results are given in words; binding and its absence hold for the method and conditions named. In cells and extracts the contact can be indirect.

The chains behind the UniProt entries cited, without tags or fusion partners. Where a name states a change or a piece, a line headed by the entry shows the natural chain unless it says otherwise.
UniProt Q14457: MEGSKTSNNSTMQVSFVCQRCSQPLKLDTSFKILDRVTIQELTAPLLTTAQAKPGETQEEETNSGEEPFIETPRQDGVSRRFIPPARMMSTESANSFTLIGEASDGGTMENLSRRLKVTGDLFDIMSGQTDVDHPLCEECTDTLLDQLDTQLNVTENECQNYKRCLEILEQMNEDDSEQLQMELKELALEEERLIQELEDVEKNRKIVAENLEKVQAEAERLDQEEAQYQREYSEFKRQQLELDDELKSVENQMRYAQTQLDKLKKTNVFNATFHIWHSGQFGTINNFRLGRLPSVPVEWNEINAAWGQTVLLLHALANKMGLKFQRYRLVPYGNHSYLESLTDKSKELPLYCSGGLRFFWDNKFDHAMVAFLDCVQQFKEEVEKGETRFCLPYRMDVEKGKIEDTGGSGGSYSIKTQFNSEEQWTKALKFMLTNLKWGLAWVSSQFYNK

Target: T1, BCL2L10 (human (endogenous in Hep3B)) (UniProt Q9HD36)
T1 sequence: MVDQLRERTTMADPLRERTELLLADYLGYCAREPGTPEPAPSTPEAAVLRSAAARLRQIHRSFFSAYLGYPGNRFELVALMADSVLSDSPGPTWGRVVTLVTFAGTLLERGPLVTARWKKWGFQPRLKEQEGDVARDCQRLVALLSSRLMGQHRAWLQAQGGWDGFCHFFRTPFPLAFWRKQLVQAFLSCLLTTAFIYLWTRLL
Test: co-IP; HCC cells transfected with wild-type or deletion constructs (Flag-BECN1ΔBH3, Myc-BCL2L10ΔBH1, Flag-BECN1ΔECD); EBC lysis buffer; anti-flag, anti-Myc or anti-BECN1 antibody with protein A/G beads; Western blot

With Flag-BECN1ΔBH3 (from UniProt Q14457) the binding was “no binding”.
